Experimental data: patent publication US7416840B2, “Replication of hepatitis C virus in non-hepatic epithelial and mouse hepatic cells” (priority 2002, dated 2008)
At least one structure is not confirmed: it was looked up by name or label, or the drawing left a doubt.

System: IFN-α response against the HCV replicon
Format: cell-based, human
Settings: for Effect on the activity of IFN-α against the HCV replicon: GS4.1 cells, compound at listed concn for 2 h, then with 100 IU of IFN-α/ml for 24 h, viral RNA by Northern blot

SMILES | Effect on the activity of IFN-α against the HCV replicon | inhibition of the IFN-α response against HCV replicon (GS4.1 (Huh7) cells)
CC[C@H](C)[C@H](NC(=O)[C@H]([C@@H](C)CC)N(C)C(C)=O)C(=O)N[C@H](C(=O)N[C@@H](CC(C)C)C(=O)[C@@]1(C)CO1)[C@@H](C)O [Epoxomicin] | + | 
COC[C@H]1OC(=O)c2coc3c2[C@@]1(C)C1=C(C3=O)[C@@H]2CCC(=O)[C@@]2(C)C[C@H]1OC(C)=O [Wortmannin, wortmannin] |  | did not inhibit the IFN response at detectable levels
CC(C)(C)n1nc(-c2ccc(Cl)cc2)c2c(N)ncnc21 [PP2] | − | 
COc1cccc(-c2cc(=O)c3ccccc3o2)c1N [PD 98059] | − | 
